Laboratory results published in patent US9018187B2, “Cationic lipids and methods for the delivery of therapeutic agents” (Protiva Biotherapeutics, Inc., priority 2009, dated 2015).
“Also recorded” adds a separate entry of the source. For at least one compound, name, drawing or mass did not settle the structure.

System: liver ApoB mRNA
Assay: Liver ApoB mRNA knockdown by 1:57 SNALP with APOB siRNA in mice
Format: in vivo, mouse
Details: Example 14, FIGS. 3-6, IV 0.1 mg/kg (dose response 0.01, 0.03, 0.1 mg/kg), female Balb/c mice, 48 hours
Method: Each SNALP formulation was administered by intravenous (IV) injection at 0.1 mg/kg into female Balb/c mice (n=3 per group). Plasma total cholesterol and/or liver ApoB mRNA levels were evaluated at 48 hours after SNALP administration. For dose response studies, SNALP formulations were administered by IV injection at 0.01 mg/kg, 0.03 mg/kg, or 0.1 mg/kg into female Balb/c mice (n=3 per group). Liver ApoB mRNA levels were evaluated at 48 hours after SNALP administration. […]
(§1) Each SNALP formulation was administered by intravenous (IV) injection at 0.1 mg/kg into female Balb/c mice (n=3 per group). Livers were colleted at 48 hours after SNALP administration and liver ApoB mRNA levels were evaluated by performing an ApoB/GAPDH QG assay. […]
as §1
For dose response studies, SNALP formulations were administered by IV injection at 0.01 mg/kg, 0.033 mg/kg, or 0.1 mg/kg into female Balb/c mice (n=3 per group). Liver ApoB mRNA levels were evaluated at 48 hours after SNALP administration by a branched DNA assay (QuantiGene assay) to assess ApoB mRNA relative to the housekeeping gene GAPDH.

Question: With `CCCCC/C=C\C/C=C\C/C=C\CCCCCOCC(CN(C)C)OCCCCC/C=C\C/C=C\C/C=C\CCCCC` (stereo not shown) [γ-DLenDMA, 1,2-Di-γ-linolenyloxy-N,N-dimethylaminopropane] as the molecule, how does the “liver ApoB mRNA knockdown activity (silencing ApoB expression)” value read?
Answer: more potent in silencing ApoB expression compared to a SNALP formulation containing either DLinDMA or DLenDMA; also recorded: in vivo results similar to that of a SNALP formulation containing DLin-K-C2-DMA
